From the supplement of paper PMC6078165
Values are relative to the signal before dosing, not to a vehicle control; the signal also falls without drug.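 Fibroblast labels name human fibroblasts: mostly primary ones from tissues such as uterus (C12385, HUF), lung (H6013), bone (Hs27A), adrenal (HADF) and skin (WS1), plus mammary HMF and breast cancer-associated Hs343T. The cancer cells are basal-like or mesenchymal-like triple-negative breast cancer lines. The paper calls a changed response a hit when it shifts by more than 3x the replicate standard deviation. The tissue of the other fibroblasts is not given here.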

Test system: MDAMB436
Assay: relative JC-1 red fluorescence (viability) vs pre-drug, coculture with fibroblast (fraction); higher = more viable cancer cells
Description: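 JC-1 labelled TNBC cells cocultured 1:1 (1,500 cells each) with CellTrace Violet stained primary or stromal fibroblasts in 384-well plates in FluoroBrite medium, treated with one of 42 anticancer drugs at 0.1, 1, 10 or 100 uM. JC-1 red fluorescence (mitochondrial integrity in cancer cells only) was read by plate reader every 8 h for 72 h. Values are normalised to each well's pre-drug value. The stock of one drug was tenfold lower, so its dose labels may be too high.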

CC[C@]1(O)C[C@@H]2CN(CCc3c([nH]c4ccccc34)[C@@](C(=O)OC)(c3cc4c(cc3OC)N(C)[C@H]3[C@@](O)(C(=O)OC)[C@H](OC(C)=O)[C@]5(CC)C=CCN6CC[C@]43[C@@H]65)C2)C1 [Vinblastine]
relative JC-1 red fluorescence
Conditions | 8 h | 16 h | 24 h | 32 h | 40 h | 48 h | 56 h | 64 h | 72 h
10 µM, coculture fibroblast: C12385 | 0.73 | 0.722 | 0.705 | 0.65 | 0.627 | 0.607 | 0.566 | 0.532 | 0.517
10 µM, coculture fibroblast: H6013 | 0.768 | 0.782 | 0.799 | 0.836 | 0.836 | 0.81 | 0.845 | 0.83 | 0.795
10 µM, coculture fibroblast: H6019 | 0.771 | 0.755 | 0.7503 | 0.7223 | 0.726 | 0.712 | 0.702 | 0.687 | 0.684
10 µM, coculture fibroblast: H6076 | 0.778 | 0.743 | 0.74 | 0.667 | 0.638 | 0.608 | 0.609 | 0.594 | 0.576
10 µM, coculture fibroblast: H6231 | 0.768 | 0.684 | 0.683 | 0.587 | 0.537 | 0.503 | 0.469 | 0.435 | 0.4171
10 µM, coculture fibroblast: HADF | 0.783 | 0.796 | 0.8 | 0.799 | 0.786 | 0.82 | 0.755 | 0.729 | 0.672
10 µM, coculture fibroblast: HCFa | 0.795 | 0.797 | 0.777 | 0.764 | 0.737 | 0.741 | 0.671 | 0.655 | 0.605
10 µM, coculture fibroblast: HCPF | 0.769 | 0.747 | 0.7443 | 0.657 | 0.608 | 0.569 | 0.527 | 0.501 | 0.482
10 µM, coculture fibroblast: HHSteC | 0.796 | 0.826 | 0.836 | 0.824 | 0.824 | 0.845 | 0.78 | 0.752 | 0.694
10 µM, coculture fibroblast: HMF | 0.728 | 0.712 | 0.73 | 0.67 | 0.637 | 0.584 | 0.57 | 0.5318 | 0.51368
10 µM, coculture fibroblast: HPFa | 0.8116 | 0.776 | 0.7811 | 0.761 | 0.7665 | 0.779 | 0.7096 | 0.701 | 0.64
10 µM, coculture fibroblast: HUF | 0.818 | 0.7864 | 0.771 | 0.719 | 0.67 | 0.627 | 0.586 | 0.561 | 0.549
10 µM, coculture fibroblast: Hs5 | 0.683 | 0.666 | 0.6797 | 0.61 | 0.59 | 0.541 | 0.533 | 0.496 | 0.485
10 µM, coculture fibroblast: Hs27A | 0.778 | 0.737 | 0.734 | 0.721 | 0.703 | 0.764 | 0.663 | 0.6521 | 0.5783
10 µM, coculture fibroblast: Hs343T | 0.805 | 0.765 | 0.745 | 0.683 | 0.634 | 0.568 | 0.528 | 0.502 | 0.484
10 µM, coculture fibroblast: WS1 | 0.7457 | 0.723 | 0.705 | 0.646 | 0.621 | 0.591 | 0.565 | 0.519 | 0.505
100 µM, coculture fibroblast: C12385 | 0.74 | 0.701 | 0.7036 | 0.592 | 0.457 | 0.376 | 0.313 | 0.26 | 0.238
100 µM, coculture fibroblast: H6013 | 0.799 | 0.787 | 0.723 | 0.604 | 0.452 | 0.423 | 0.339 | 0.306 | 0.256
100 µM, coculture fibroblast: H6019 | 0.813 | 0.805 | 0.757 | 0.644 | 0.546 | 0.483 | 0.421 | 0.371 | 0.339
100 µM, coculture fibroblast: H6076 | 0.873 | 0.831 | 0.793 | 0.659 | 0.5063 | 0.371 | 0.2625 | 0.208 | 0.169
100 µM, coculture fibroblast: H6231 | 0.865 | 0.7777 | 0.765 | 0.712 | 0.678 | 0.489 | 0.299 | 0.197 | 0.156
100 µM, coculture fibroblast: HADF | 0.859 | 0.735 | 0.72 | 0.633 | 0.605 | 0.565 | 0.446 | 0.42 | 0.358
100 µM, coculture fibroblast: HCFa | 0.815 | 0.834 | 0.829 | 0.775 | 0.599 | 0.52 | 0.377 | 0.345 | 0.271
100 µM, coculture fibroblast: HCPF | 0.9088 | 0.866 | 0.833 | 0.717 | 0.57 | 0.432 | 0.287 | 0.21 | 0.164
100 µM, coculture fibroblast: HHSteC | 0.748 | 0.779 | 0.765 | 0.678 | 0.527 | 0.486 | 0.372 | 0.338 | 0.273
100 µM, coculture fibroblast: HMF | 0.92 | 0.912 | 0.904 | 0.811 | 0.646 | 0.466 | 0.301 | 0.226 | 0.182
100 µM, coculture fibroblast: HPFa | 0.7529 | 0.769 | 0.769 | 0.68 | 0.535 | 0.476 | 0.371 | 0.346 | 0.283
100 µM, coculture fibroblast: HUF | 0.833 | 0.7718 | 0.706 | 0.541 | 0.383 | 0.281 | 0.222 | 0.188 | 0.17
100 µM, coculture fibroblast: Hs5 | 0.887 | 0.848 | 0.819 | 0.727 | 0.623 | 0.481 | 0.388 | 0.288 | 0.227
100 µM, coculture fibroblast: Hs27A | 0.756 | 0.711 | 0.64 | 0.536 | 0.408 | 0.416 | 0.281 | 0.258 | 0.186
100 µM, coculture fibroblast: Hs343T | 0.856 | 0.85 | 0.847 | 0.78 | 0.699 | 0.584 | 0.448 | 0.36 | 0.305
100 µM, coculture fibroblast: WS1 | 0.7607 | 0.7668 | 0.732 | 0.571 | 0.465 | 0.391 | 0.343 | 0.286 | 0.259
